Data on 2 substances can be found in article PMC12753876.

By UniProt entry, the sequences of proteins in these tests, tags left out. Where a name states a change or a piece, a line headed by the entry shows the natural chain unless it says otherwise. Chains listed by the source or under a name are the forms on record and can include a tag or linker. Residues count along the entry.
UniProt Q8GYY1: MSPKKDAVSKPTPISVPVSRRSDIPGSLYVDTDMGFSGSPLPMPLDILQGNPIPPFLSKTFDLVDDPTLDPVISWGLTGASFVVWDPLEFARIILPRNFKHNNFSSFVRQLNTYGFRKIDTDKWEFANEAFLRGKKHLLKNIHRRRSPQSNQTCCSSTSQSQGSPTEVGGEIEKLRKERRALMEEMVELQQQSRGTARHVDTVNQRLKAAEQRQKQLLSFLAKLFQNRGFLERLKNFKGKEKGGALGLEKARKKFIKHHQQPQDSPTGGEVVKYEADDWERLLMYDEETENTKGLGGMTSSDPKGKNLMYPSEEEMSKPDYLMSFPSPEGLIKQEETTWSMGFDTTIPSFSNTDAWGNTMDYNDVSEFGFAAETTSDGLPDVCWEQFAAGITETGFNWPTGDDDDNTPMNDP
CRY1^(PHR WT) in pGADT7 (AD) (Q43125, residues 1-508): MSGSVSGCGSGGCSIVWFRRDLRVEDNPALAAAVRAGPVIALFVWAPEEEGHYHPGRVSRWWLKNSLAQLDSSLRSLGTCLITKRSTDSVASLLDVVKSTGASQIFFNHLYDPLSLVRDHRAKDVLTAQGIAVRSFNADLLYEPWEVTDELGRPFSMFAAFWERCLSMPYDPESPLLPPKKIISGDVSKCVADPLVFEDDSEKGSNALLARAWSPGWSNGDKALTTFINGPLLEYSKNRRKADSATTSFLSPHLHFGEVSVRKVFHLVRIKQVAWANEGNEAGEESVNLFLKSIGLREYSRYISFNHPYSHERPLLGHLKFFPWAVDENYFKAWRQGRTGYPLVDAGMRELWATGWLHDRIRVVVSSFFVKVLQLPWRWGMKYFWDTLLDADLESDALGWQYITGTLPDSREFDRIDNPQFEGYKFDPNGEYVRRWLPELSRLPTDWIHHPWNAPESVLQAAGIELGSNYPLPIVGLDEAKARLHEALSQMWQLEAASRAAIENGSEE
CRY1^(PHR R211E R435E) in pGADT7 (AD) (Q43125, form named): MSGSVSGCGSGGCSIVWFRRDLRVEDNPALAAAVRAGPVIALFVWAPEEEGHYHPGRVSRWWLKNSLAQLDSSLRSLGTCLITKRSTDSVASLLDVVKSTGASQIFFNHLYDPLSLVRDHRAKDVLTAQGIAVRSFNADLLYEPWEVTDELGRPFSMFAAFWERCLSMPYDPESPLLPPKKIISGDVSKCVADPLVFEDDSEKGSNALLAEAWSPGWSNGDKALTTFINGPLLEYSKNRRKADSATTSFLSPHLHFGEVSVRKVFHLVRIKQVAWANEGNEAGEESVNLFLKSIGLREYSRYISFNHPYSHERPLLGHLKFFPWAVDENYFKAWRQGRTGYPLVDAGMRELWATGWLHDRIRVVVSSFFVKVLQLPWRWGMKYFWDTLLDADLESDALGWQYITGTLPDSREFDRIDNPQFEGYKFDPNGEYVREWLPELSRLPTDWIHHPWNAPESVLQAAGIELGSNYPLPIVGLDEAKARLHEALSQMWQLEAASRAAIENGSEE

No constants are given. Whether binding was seen depends on the method and setting. A result given as binding can be weak or reduced; the word gives no strength.

Test [1] deals with HsFA3 E188R in pGBKT7 (BD) (Arabidopsis thaliana) (UniProt Q8GYY1). Put plainly: two-hybrid; CRY1 as prey in pGADT7 (AD), HsF as bait in pGBKT7 (BD), co-transformed into yeast Y187; liquid beta-galactosidase assay with CPRG, Miller units; not detected (ND) if OD578 <0.01 after 3 h of color development.
Test [2] deals with HsFA3^E173R in pGBKT7 (BD) (Arabidopsis thaliana) (UniProt Q8GYY1). The test is described as above.

On to “CRY1^(PHR R211E R435E) in pGADT7 (AD) (from UniProt Q43125 1-508) (domain or fragment)”, for which the binding entry in test [1] is listed as “binds”.

Turning to “CRY1^(PHR WT) in pGADT7 (AD) (from UniProt Q43125 1-508) (domain or fragment)”, the binding result in test [2] is on record as “binds”.
